This is an account of results in publication PMC9209732, “Transcriptional Regulation of ING5 and its Suppressive Effects on Gastric Cancer”.

By UniProt entry, the sequences of proteins in these tests, tags left out.
UniProt P25490: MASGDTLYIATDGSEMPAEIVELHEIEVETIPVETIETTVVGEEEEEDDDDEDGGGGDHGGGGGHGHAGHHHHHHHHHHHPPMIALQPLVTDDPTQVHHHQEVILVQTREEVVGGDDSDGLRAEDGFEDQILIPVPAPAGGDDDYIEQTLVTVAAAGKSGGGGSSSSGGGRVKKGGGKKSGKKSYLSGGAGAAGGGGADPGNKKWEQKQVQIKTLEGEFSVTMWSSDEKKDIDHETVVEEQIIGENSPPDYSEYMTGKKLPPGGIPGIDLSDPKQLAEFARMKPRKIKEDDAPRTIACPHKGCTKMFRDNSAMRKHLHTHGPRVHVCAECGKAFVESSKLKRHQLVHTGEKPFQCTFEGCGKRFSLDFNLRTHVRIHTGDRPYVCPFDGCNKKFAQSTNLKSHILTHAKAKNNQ
UniProt Q8WYH8: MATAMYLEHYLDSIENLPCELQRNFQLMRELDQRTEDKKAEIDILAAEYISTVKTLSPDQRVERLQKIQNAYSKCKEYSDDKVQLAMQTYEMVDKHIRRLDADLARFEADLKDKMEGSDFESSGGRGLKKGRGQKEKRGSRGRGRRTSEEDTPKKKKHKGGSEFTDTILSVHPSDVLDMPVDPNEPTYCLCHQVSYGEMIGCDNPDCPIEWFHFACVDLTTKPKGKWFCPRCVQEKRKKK

The target in the assay is T1, SRF (human (endogenous in AGS and SGC-7901)) (UniProt P11831).
T1 sequence: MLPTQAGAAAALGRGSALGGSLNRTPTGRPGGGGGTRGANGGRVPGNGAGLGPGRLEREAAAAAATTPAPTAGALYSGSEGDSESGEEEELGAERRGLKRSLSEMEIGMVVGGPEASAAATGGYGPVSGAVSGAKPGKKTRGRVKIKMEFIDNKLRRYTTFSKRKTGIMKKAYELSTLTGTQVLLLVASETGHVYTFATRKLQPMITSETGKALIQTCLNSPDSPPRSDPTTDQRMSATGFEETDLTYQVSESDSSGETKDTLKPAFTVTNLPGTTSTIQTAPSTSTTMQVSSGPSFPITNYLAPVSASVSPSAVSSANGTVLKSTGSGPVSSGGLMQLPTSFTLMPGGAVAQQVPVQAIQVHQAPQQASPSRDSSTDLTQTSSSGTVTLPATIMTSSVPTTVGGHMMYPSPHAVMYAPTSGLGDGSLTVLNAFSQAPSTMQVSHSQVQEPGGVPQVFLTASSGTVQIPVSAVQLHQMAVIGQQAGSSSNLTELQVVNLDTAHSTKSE
The assay is described as follows: co-IP; more than 1 mg protein of AGS and SGC-7901 cells, pre-cleared, 5 ug primary antibody overnight, protein A-Sepharose beads, washed 5 times with 1% NP40 lysis buffer, western blot; cells also treated with SRF or YY1 siRNA (binding weakened). (In western blotting, separated proteins are transferred to a membrane and probed.)

No constants are given. Whether binding was seen depends on the method and setting. In cells and extracts the contact can be indirect. Some entries that bind do so weakly or less than the wild type.

In the case of YY1 (from UniProt P25490 1-414), the binding result is recorded as “binds”. In the case of ING5 (from UniProt Q8WYH8 1-240), the binding entry is “binds”.

As for p53 (from UniProt P04637 1-393), the binding result is “binds”.
